The test system of this assay is P388 leukemia ip, CD2F1 mice, survival T/C. The assay is described as follows: NCI In Vivo Anticancer Drug Screen. Data for tumor model P388 Leukemia (intraperitoneal) in CD2F1 (CDF1) mice. The settings on record: T/C endpoint: median survival time, higher T/C = longer survival.
The mark [1] stands for this setting: dose: 200.0 mg/kg/injection, schedule: Q01DX009 (ip), vehicle: Klucel (hydroxypropylcellulose) (HPC).
[2] abbreviates: dose: 200.0 mg/kg/injection, schedule: Q01DX005 (ip), vehicle: Klucel (hydroxypropylcellulose) (HPC).
The mark [3] stands for this setting: dose: 100.0 mg/kg/injection, schedule: Q01DX005 (ip), vehicle: Klucel (hydroxypropylcellulose) (HPC).
The mark [4] stands for this setting: dose: 60.0 mg/kg/injection, schedule: Q01DX005 (ip), vehicle: saline with Tween-80.
Where [5] appears, read: dose: 240.0 mg/kg/injection, schedule: Q01DX005 (ip), vehicle: saline with Tween-80.
The mark [6] stands for this setting: dose: 100.0 mg/kg/injection, schedule: Q01DX009 (ip), vehicle: Klucel (hydroxypropylcellulose) (HPC).
Where [7] appears, read: dose: 200.0 mg/kg/injection, schedule: Q01DX005 (ip), vehicle: saline with Tween-80.
Where [8] appears, read: dose: 50.0 mg/kg/injection, schedule: Q01DX009 (ip), vehicle: saline with Tween-80.
The mark [9] stands for this setting: dose: 3.13 mg/kg/injection, schedule: Q01DX009 (ip), vehicle: water.
[10] abbreviates: dose: 25.0 mg/kg/injection, schedule: Q01DX009 (ip), vehicle: saline with Tween-80.
Setting [11] is: dose: 100.0 mg/kg/injection, schedule: Q01DX009 (ip), vehicle: saline with Tween-80.

The list shows only some results of the screen, not a fair sample: it is rich in T/C values a quarter to a half above the control, in often repeated tests (any T/C) and in doses without a T/C. Other doses and runs of a compound stand elsewhere. T/C is the treated group as % of the vehicle group. Some doses have a count of surviving animals in place of a T/C: the source files T/C as zero there, which appears to mark a toxic dose or a test without result, not a measured value. Some doses without a T/C left all or most animals alive at the check, yet need not have been tolerated: survival well below the control is almost never listed, so the zero probably covers shortened survival too. Survivors were counted at the toxicity check, usually on the fifth day, unless a day is given; later deaths do not show. Schedules are NCI's codes, read here as Q, the interval in days (D) or hours (H), X, the number of doses. Some entries hold several experiments; the values are given in rising order. For survival time, the PubChem record calls one and a half times the control and up active, and a quarter to a half above the control has no call in these data; cut-offs in other NCI protocols can differ. Some T/C values are followed by the survivors on the day toxicity was checked, most often the fifth; without a count, all were alive then.

For the molecule `Oc1ccc(Cl)cc1C1c2ccccc2Oc2ccccc21`, the survivor count under setting [1] is on record as 6 of 6.

On to `O=C(O)CN=C1C=CC(=NCC(=O)O)C=C1`, for which the survivor count under setting [2] is 3 of 6.

Turning to `CCCCC1=C([Si](C)(C)C)C(=O)c2ccccc2C1=O`, the survivor count was 5 of 5 under setting [3] and 2 of 5 (dose: 400.0 mg/kg/injection, schedule: Q01DX005 (ip), vehicle: Klucel (hydroxypropylcellulose) (HPC)). Besides, the T/C under setting [2] was 148 % of control.

For the molecule `c1ccc(C2CN3CCSC3=N2)cc1` (configuration not stated), the survivor count is 0 of 6 under setting [4]; 0 of 6 (dose: 120.0 mg/kg/injection, schedule: Q01DX005 (ip), vehicle: saline with Tween-80); 0 of 6 under setting [5].

For `CN(C)N=Nc1ccc(S(N)(=O)=O)cc1`, the survivor count under setting [1] is given as 5 of 5.

On to `CCOC(=O)Nc1nc2ccc(NC(C)=O)cc2s1`, for which the survivor count reads like this: under setting [6], 6 of 6; under setting [1], 6 of 6.

With `Cc1ccccc1N=C(CCl)Nc1ccccc1C`, the survivor count under setting [7] is 0 of 5.

Regarding `Clc1ccc2ccc3cccnc3c2n1`, where the note is “dose: 240.0 mg/kg/injection, schedule: Q01DX005 (ip), vehicle: saline”, the survivor count is listed as 0 of 6.

On to `C=CC(C)(C)c1[nH]c2ccccc2c1CC1NC(=O)C(C)NC1=O` (configuration not stated), for which the survivor count (dose: 25.0 mg/kg/injection, schedule: Q01DX009 (ip), vehicle: Klucel (hydroxypropylcellulose) (HPC)) is given as 6 of 6.

Turning to `CCC1OC(O)C=CC1=O` (configuration not stated), the survivor count (dose: 6.0 mg/kg/injection, schedule: Q01DX005 (ip), vehicle: saline) is 2 of 6 and 2 of 5; the survivor count (dose: 12.0 mg/kg/injection, schedule: Q01DX005 (ip), vehicle: saline) is 0 of 6; the survivor count (dose: 25.0 mg/kg/injection, schedule: Q01DX005 (ip), vehicle: saline) was 0 of 6; the survivor count (dose: 50.0 mg/kg/injection, schedule: Q01DX005 (ip), vehicle: saline) is 0 of 6; the survivor count (dose: 100.0 mg/kg/injection, schedule: Q01DX005 (ip), vehicle: saline) was 0 of 6; the survivor count (dose: 200.0 mg/kg/injection, schedule: Q01DX005 (ip), vehicle: saline) is reported as 0 of 6.

Take `O=P(N1CC=CCC1)(N1CC1)N1CC1`: the T/C by setting is: (dose: 12.5 mg/kg/injection, schedule: Q01DX009 (ip), vehicle: saline) 131 % of control; (dose: 15.0 mg/kg/injection, schedule: Q04DX003 (ip), vehicle: saline) 145 % of control. For the same molecule, the survivor count (dose: 18.7 mg/kg/injection, schedule: Q01DX009 (ip), vehicle: saline) is on record as 6 of 6.

On to `CCOc1ccc(C2=C(O)/C(=C(\C(=O)Nc3nccs3)c3ccc(OCC)cc3)OC2=O)cc1`, for which the survivor count is reported as 1 of 6 under setting [3] and 0 of 6 under setting [2].

In the case of `CC(=O)OCc1c(-c2ccccc2)nc2sccn12`, the survivor count (dose: 400.0 mg/kg/injection, schedule: Q01DX001 (ip), vehicle: Klucel (hydroxypropylcellulose) (HPC)) was 1 of 6.

On to `NC(Cc1ccc(OC(c2ccccc2)c2ccccc2)cc1)C(=O)O` (configuration not stated), for which the survivor count under setting [8] is 6 of 6.

In the case of `COc1cc2c(cc1OC)C1=C(CC2)C2CCCN2CC1` (configuration not stated), the survivor count (dose: 50.0 mg/kg/injection, schedule: Q04DX003 (ip), vehicle: saline) was 6 of 6.

For `O=C(Nc1nncs1)C(F)(F)F`, the T/C (dose: 25.0 mg/kg/injection, schedule: Q01DX009 (ip), vehicle: water) is 142 % of control. Also, the survivor count runs as follows: (dose: 100.0 mg/kg/injection, schedule: Q01DX009 (ip), vehicle: distilled water + Tween-80) 4 of 6; (dose: 100.0 mg/kg/injection, schedule: Q01DX009 (ip), vehicle: water) 4 of 6; (dose: 200.0 mg/kg/injection, schedule: Q01DX009 (ip), vehicle: distilled water + Tween-80) 1 of 6; (dose: 200.0 mg/kg/injection, schedule: Q01DX009 (ip), vehicle: water) 2 of 6; (dose: 400.0 mg/kg/injection, schedule: Q01DX009 (ip), vehicle: distilled water + Tween-80) 0 of 6.

With `C=C1C(O)C2(O)OCC34C(CC5C(C)=CC(=O)C(O)C5(C)C23)OC(=O)C(OC(=O)C/C=C/CCCCCCCC)C14` (configuration not stated), the T/C (dose: 0.5 mg/kg/injection, schedule: Q01DX005 (ip), vehicle: saline + alcohol) was 125 and 131 % of control; the T/C (dose: 1.0 mg/kg/injection, schedule: Q01DX005 (ip), vehicle: saline + alcohol) is 133 and 136 % of control; the T/C (dose: 2.0 mg/kg/injection, schedule: Q01DX005 (ip), vehicle: saline + alcohol) was 137 % of control.

With `COc1c2ccccc2c(OC)c2c(OC(C)=O)c3c(c(OC(C)=O)c12)CC=CC3`, the survivor count (dose: 12.5 mg/kg/injection, schedule: Q01DX009 (ip), vehicle: other) is given as 3 of 3.

For the molecule `CCOC(=O)c1ccc(=O)n2c1[nH]c1ccccc12`, the survivor count by setting is: (dose: 100.0 mg/kg/injection, schedule: Q01DX005 (ip), vehicle: saline with Tween-80) 5 of 5; under setting [7], 5 of 5.

As to `O=C(CC(c1ccccc1)C(Sc1ccccc1)(Sc1ccccc1)Sc1ccccc1)c1ccccc1` (configuration not stated), the survivor count under setting [1] is recorded as 6 of 6.

As to `O=C1N[C@@H]([C@H]2CC[C@H](Cl)CN2)C(=O)N[C@H]1[C@H]1CC[C@H](Cl)CN1`, the T/C by setting is: (dose: 0.25 mg/kg/injection, schedule: Q01DX005 (ip), vehicle: saline) 134 % of control [5 of 6 alive]; (dose: 0.5 mg/kg/injection, schedule: Q01DX005 (ip), vehicle: saline) 146 % of control; (dose: 0.5 mg/kg/injection, schedule: Q01DX005 (oral), vehicle: saline) 127 % of control; (dose: 1.0 mg/kg/injection, schedule: Q01DX005 (oral), vehicle: saline) 127 % of control [5 of 6 alive]; under setting [9], 135 % of control; (dose: 8.0 mg/kg/injection, schedule: Q01DX001 (ip), vehicle: saline) 147 % of control. The survivor count under setting [9] is given as 6 of 6; the survivor count (dose: 4.0 mg/kg/injection, schedule: Q01DX005 (oral), vehicle: saline) was 6 of 6; the survivor count (dose: 6.25 mg/kg/injection, schedule: Q01DX009 (ip), vehicle: water) is on record as 6 of 6; the survivor count (dose: 8.0 mg/kg/injection, schedule: Q01DX005 (oral), vehicle: saline) is 3 of 6.

Turning to `O=C1N(Cl)C(=O)C(c2ccc(Cl)cc2)(c2ccc(Cl)cc2)N1Cl`, the T/C is, setting by setting: under setting [10], 127 % of control; under setting [8], 145 % of control [5 of 6 alive]. The survivor count is given as 5 of 6 under setting [11] and 5 of 6 (dose: 200.0 mg/kg/injection, schedule: Q01DX009 (ip), vehicle: saline with Tween-80).

As to `CCCCCCCCCCCC[N+](C)([O-])Cc1ccccc1` (configuration not stated), the survivor count reads like this: under setting [6], 5 of 6; under setting [1], 0 of 6.

Regarding `S=C=NCCc1ccccc1`, the T/C under setting [10] was 126 % of control; the T/C (dose: 33.0 mg/kg/injection, schedule: Q01DX009 (ip), vehicle: saline with Tween-80) was 128 % of control; the T/C under setting [8] was 133 % of control. In addition, the survivor count is recorded as 6 of 6 (dose: 75.0 mg/kg/injection, schedule: Q01DX009 (ip), vehicle: saline with Tween-80) and 2 of 6 under setting [11].

`CCCCCCCCCCCCCCC[N+]1([O-])CCOCC1`: the survivor count (dose: 200.0 mg/kg/injection, schedule: Q01DX009 (ip), vehicle: saline) is 0 of 6.

In the case of `Cc1nc2ccccc2c(=O)n1-c1nc2ccccc2s1`, the survivor count by setting is: under setting [4], 6 of 6; under setting [5], 6 of 6.

With `CSC1=CC(=NCc2ccccc2)CC(C)(C)S1`, the survivor count is, setting by setting: (dose: 120.0 mg/kg/injection, schedule: Q01DX005 (ip), vehicle: Klucel (hydroxypropylcellulose) (HPC)) 2 of 6; (dose: 240.0 mg/kg/injection, schedule: Q01DX005 (ip), vehicle: Klucel (hydroxypropylcellulose) (HPC)) 0 of 6.

The record behind these values is PubChem BioAssay AID330 (DTP/NCI, 2004).
